Record: PubChem BioAssay AID1259254 (NCATS, 2017)

Screen: 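Genome-wide screen for genes that prevent DNA re-replication in cancer cells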 (primary screen)
Cell system: human HCT116 colorectal cancer cells
Knock-down reagent: single siRNA against human genes
Time to read-out: 3 days
Detection: 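Imaged Hoechst DNA stain sorts each cell into a cycle phase by DNA amount; per plate, G2 fraction set to 0% for non-targeting and 100% for GMNN siRNA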
Direction: G2 robust z-score and G2 cells, % of GMNN control: higher = more G2 cells, more excess DNA replication
Call rule: 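An siRNA counts as active if its G2 robust z-score lies at least 5 MADs above the screen median; here such calls match roughly 38% of GMNN control or more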
This is one part, drawn at random, of about 59,000 reagents tested. About 1,550 of all reagents (2.6%) count as active. 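G2 share is only a proxy for re-replication; each gene was hit by three separate siRNAs, and active genes were retested.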 Reagents against one gene are numbered here. Further read-outs or replicates are left out here. The record does not give: the amount of reagent.

Knock-down of F8A1 (coagulation factor VIII associated 1) #1 came out at: G2 robust z-score 0.653; G2 cells, % of GMNN control 7.56; inactive. Against F8A1 (coagulation factor VIII associated 1) #2, the values are G2 robust z-score -0.0353; G2 cells, % of GMNN control 2.72; inactive. For F8A1 (coagulation factor VIII associated 1) #3 the deposit lists G2 robust z-score 3.7; G2 cells, % of GMNN control 29; inactive. For RPL5P1 (ribosomal protein L5 pseudogene 1) #1, the entry reads G2 robust z-score 3.33; G2 cells, % of GMNN control 26.4; inactive. RPL5P1 (ribosomal protein L5 pseudogene 1) #2 gave G2 robust z-score -0.797; G2 cells, % of GMNN control -2.64; inactive. After knock-down of RPL5P1 (ribosomal protein L5 pseudogene 1) #3, the screen gave G2 robust z-score -0.364; G2 cells, % of GMNN control 0.403; inactive.

For LINC00951 (long independently transcribed non-coding RNA 951) #1 the deposit lists G2 robust z-score -0.546; G2 cells, % of GMNN control -0.876; inactive. For LINC00951 (long independently transcribed non-coding RNA 951) #2, the entry reads G2 robust z-score -0.776; G2 cells, % of GMNN control -2.49; inactive. LINC00951 (long independently transcribed non-coding RNA 951) #3 scored G2 robust z-score 0.3; G2 cells, % of GMNN control 5.08; inactive. Against ATG4B (autophagy related 4B cysteine peptidase) #1, the entry reads G2 robust z-score 3.01; G2 cells, % of GMNN control 24.2; inactive. Against ATG4B (autophagy related 4B cysteine peptidase) #2, the values are G2 robust z-score 1.98; G2 cells, % of GMNN control 16.9; inactive. Knock-down of ATG4B (autophagy related 4B cysteine peptidase) #3 resulted in: G2 robust z-score 1.11; G2 cells, % of GMNN control 10.8; inactive.

With knock-down of OR4M2 (olfactory receptor family 4 subfamily M member 2) #1 the results were G2 robust z-score -0.486; G2 cells, % of GMNN control -0.453; inactive. OR4M2 (olfactory receptor family 4 subfamily M member 2) #2 scored G2 robust z-score -0.477; G2 cells, % of GMNN control -0.386; inactive. For OR4M2 (olfactory receptor family 4 subfamily M member 2) #3, the entry reads G2 robust z-score 0.199; G2 cells, % of GMNN control 4.36; inactive.

An excerpt taken from the entries so far, for reference:
RPL5P1 (ribosomal protein L5 pseudogene 1) #1 | G2 robust z-score = 3.33; G2 cells, % of GMNN control = 26.4; activity call = inactive
RPL5P1 (ribosomal protein L5 pseudogene 1) #2 | G2 robust z-score = -0.797; G2 cells, % of GMNN control = -2.64; activity call = inactive

The listing continues.
Against DPM1 (dolichyl-phosphate mannosyltransferase subunit 1, catalytic) #1 the deposit lists G2 robust z-score 0.121; G2 cells, % of GMNN control 3.82; inactive. For DPM1 (dolichyl-phosphate mannosyltransferase subunit 1, catalytic) #2, the values are G2 robust z-score 3.38; G2 cells, % of GMNN control 26.8; inactive. Depletion of DPM1 (dolichyl-phosphate mannosyltransferase subunit 1, catalytic) #3 gave: G2 robust z-score -0.526; G2 cells, % of GMNN control -0.735; inactive. For ZNF45 (zinc finger protein 45) #1, the values are G2 robust z-score 0.225; G2 cells, % of GMNN control 4.55; inactive. Knock-down of ZNF45 (zinc finger protein 45) #2 gave: G2 robust z-score 4.43; G2 cells, % of GMNN control 34.1; inactive. Depletion of ZNF45 (zinc finger protein 45) #3 resulted in: G2 robust z-score 2.33; G2 cells, % of GMNN control 19.4; inactive.

DTYMK (deoxythymidylate kinase) #1 showed G2 robust z-score -1.18; G2 cells, % of GMNN control -5.36; inactive. DTYMK (deoxythymidylate kinase) #2 scored G2 robust z-score 0.191; G2 cells, % of GMNN control 4.31; inactive. Silencing of DTYMK (deoxythymidylate kinase) #3 came out at: G2 robust z-score -1.03; G2 cells, % of GMNN control -4.29; inactive.
